Measurements: paper PMC11514458
For at least one entry, the source does not settle the construct or the ends of the probe. For some assays here: No signal at the amounts used counts as a negative. For some assays here: At least one verdict was read from the data and is not stated in words by the source. For some assays here: The comparison behind a weaker result is the experiment's own reference, which may not be listed here.

Chains of the proteins cited; added tags and fusions are not shown. A line that says so, or that is headed by a name, gives the form on record, which may keep a tag or linker.
UniProt Q06609, whole entry K133A: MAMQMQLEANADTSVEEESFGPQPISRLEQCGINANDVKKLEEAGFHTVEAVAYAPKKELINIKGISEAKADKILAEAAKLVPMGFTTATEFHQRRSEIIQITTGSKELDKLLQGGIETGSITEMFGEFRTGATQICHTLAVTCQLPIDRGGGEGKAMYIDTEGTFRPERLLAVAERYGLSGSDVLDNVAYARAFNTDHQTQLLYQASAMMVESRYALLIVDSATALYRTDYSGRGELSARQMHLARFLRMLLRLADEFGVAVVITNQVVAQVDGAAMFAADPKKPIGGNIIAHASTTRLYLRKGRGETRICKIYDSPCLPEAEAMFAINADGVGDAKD
UniProt Q06609, whole entry K133R: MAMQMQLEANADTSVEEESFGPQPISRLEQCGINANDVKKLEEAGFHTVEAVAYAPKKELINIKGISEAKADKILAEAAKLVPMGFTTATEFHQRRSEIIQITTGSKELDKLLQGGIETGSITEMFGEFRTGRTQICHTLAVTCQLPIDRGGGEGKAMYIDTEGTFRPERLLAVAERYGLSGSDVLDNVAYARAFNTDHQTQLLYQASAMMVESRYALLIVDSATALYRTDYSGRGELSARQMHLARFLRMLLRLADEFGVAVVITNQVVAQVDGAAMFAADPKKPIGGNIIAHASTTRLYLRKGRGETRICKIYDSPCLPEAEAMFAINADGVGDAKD
BCDX2 complex (human), one chain, as listed by the source, chain 2 of 4: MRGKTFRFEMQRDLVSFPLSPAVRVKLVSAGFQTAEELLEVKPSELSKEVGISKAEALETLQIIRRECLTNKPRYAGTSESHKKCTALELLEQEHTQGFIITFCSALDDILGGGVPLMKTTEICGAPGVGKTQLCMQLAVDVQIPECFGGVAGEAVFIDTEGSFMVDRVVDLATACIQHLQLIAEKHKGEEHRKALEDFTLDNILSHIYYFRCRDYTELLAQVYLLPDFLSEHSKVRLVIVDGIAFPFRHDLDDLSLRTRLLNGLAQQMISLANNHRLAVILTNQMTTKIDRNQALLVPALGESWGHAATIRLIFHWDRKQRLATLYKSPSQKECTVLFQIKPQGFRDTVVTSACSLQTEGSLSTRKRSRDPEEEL
BCDX2 complex (human), one chain, as listed by the source, chain 3 of 4: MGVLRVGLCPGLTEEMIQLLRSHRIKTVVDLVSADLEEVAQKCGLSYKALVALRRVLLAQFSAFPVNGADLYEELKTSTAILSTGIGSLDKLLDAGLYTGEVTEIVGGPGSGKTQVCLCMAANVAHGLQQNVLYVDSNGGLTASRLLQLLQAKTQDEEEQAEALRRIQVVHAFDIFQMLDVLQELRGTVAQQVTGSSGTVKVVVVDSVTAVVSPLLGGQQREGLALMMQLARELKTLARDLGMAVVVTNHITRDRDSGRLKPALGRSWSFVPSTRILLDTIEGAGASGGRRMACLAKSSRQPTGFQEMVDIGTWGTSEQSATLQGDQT
BCDX2 complex (human), one chain, as listed by the source, chain 4 of 4: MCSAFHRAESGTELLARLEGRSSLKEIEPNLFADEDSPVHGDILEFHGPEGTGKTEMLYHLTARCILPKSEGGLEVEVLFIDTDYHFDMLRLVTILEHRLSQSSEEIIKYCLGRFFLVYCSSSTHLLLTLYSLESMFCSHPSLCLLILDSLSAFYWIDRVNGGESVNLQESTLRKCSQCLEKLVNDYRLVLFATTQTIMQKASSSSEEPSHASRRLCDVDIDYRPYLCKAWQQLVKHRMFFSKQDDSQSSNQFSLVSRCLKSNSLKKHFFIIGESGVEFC
BCDX2 complex (human), one chain, as listed by the source, chain 1 of 4: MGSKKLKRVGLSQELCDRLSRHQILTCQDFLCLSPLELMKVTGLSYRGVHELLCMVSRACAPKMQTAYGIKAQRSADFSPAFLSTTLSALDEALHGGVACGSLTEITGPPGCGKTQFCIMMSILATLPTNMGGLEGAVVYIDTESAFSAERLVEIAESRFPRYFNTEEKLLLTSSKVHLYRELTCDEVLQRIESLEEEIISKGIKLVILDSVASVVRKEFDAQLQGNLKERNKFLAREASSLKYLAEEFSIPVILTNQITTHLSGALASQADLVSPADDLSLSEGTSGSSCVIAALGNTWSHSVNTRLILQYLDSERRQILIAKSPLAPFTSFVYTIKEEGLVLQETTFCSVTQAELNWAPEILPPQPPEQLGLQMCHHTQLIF

Key:
BCDX2 complex (human) [1] = experiment: EMSA; conditions: EMSA: 20 mM Tris-HCl pH 7.5, 2 mM MgCl2, 2 mM ATP, 37 C, 20 nM DNA, glutaraldehyde fixation, recombinant protein, protein details: Strep-tag and His-tag (XRCC2 N-terminal His)
BC complex (human) = experiment: EMSA; conditions: EMSA: 20 mM Tris-HCl pH 7.5, 2 mM MgCl2, 2 mM ATP, 37 C, 20 nM DNA, glutaraldehyde fixation, recombinant protein, protein details: Strep-tag
DX2 complex (human) = experiment: EMSA; conditions: EMSA: 20 mM Tris-HCl pH 7.5, 2 mM MgCl2, 2 mM ATP, 37 C, 20 nM DNA, glutaraldehyde fixation, recombinant protein, protein details: His-tag
miniBRCA2-DSS1 (human) = experiment: EMSA; conditions: weaker than BCDX2; EMSA: 20 mM Tris-HCl pH 7.5, 2 mM MgCl2, 2 mM ATP, 37 C, 20 nM DNA, glutaraldehyde fixation; recombinant protein; label: 5' FITC; single-stranded DNA
RAD51 + BCDX2 complex = experiment: BLI; conditions: BLI: 50 mM Tris-HCl pH 7.5, 2 mM ATP, 50 mM KCl, 5 mM MgCl2, 0.05% Tween 20, room temperature, recombinant protein, protein details: Strep-tag and His-tag (XRCC2 N-terminal His), label: 5' biotin, single-stranded DNA
RAD51 K133A = RAD51 K133A (UniProt Q06609); experiment: stopped-flow fluorescence; conditions: reduced cooperativity, re-evaluated earlier data (ref 33); stopped-flow: 25 mM Tris-HCl pH 7.5, 5 mM MgCl2, 50 mM KCl, 2 mM ATP, 0.5 mM EDTA, 10% glycerol …; recombinant protein; label: Cy3 at 3' or 5'; single-stranded DNA
RAD51 K133R = RAD51 K133R (UniProt Q06609); experiment: stopped-flow fluorescence; conditions: reduced cooperativity, re-evaluated earlier data (ref 33); stopped-flow: 25 mM Tris-HCl pH 7.5, 5 mM MgCl2, 50 mM KCl, 2 mM ATP, 0.5 mM EDTA, 10% glycerol …; recombinant protein; label: Cy3 at 3' or 5'; single-stranded DNA
BCDX2 complex (human) [2] = experiment: BLI; conditions: ATP, Mg2+; BLI: 50 mM Tris-HCl pH 7.5, 2 mM ATP, 50 mM KCl, 5 mM MgCl2, 0.05% Tween 20, room temperature; recombinant protein; protein details: Strep-tag and His-tag (XRCC2 N-terminal His); label: 5' biotin; single-stranded DNA
[3] = BCDX2 facilitates RAD51 binding

Sequence: AAATCAATCTAAAGTATATATGAGTAAACTTGGTCTGACAGTTACCAATGCTTAATCAGTGAGGCACCTATCTCAGCGATCTGTCTATTT / AAATAGACAGATCGCTGAGATAGGTGCCTCACTGATTAAGCATTG / TATATACTTTAGATTGATTT [gapped DNA]
- binding result (BCDX2 complex (human) [1]; weaker than Y-form and flap, label: 5' FITC on strand 2): binds more weakly

Sequence: AGCTACCATGCCTGCACGAATTAAGCAATTCGTAATCATGGTCATAGCT (double strand) [dsDNA 49mer]
- binding result (BCDX2 complex (human) [1]; little or no affinity, label: 3' FITC): no binding
- binding result (BC complex (human); label: 3' FITC): no binding
- binding result (DX2 complex (human); label: 3' FITC): no binding

Sequence: AGCTACCATGCCTGCACGAATTAAGCAATTCGTAATCATGGTCATAGCT / AATTCGTGCAGGCATGGTAGCT [3' overhang (3'-OH)]
- binding result (BCDX2 complex (human) [1]; weaker than Y-form and flap, label: 5' FITC on strand 1): binds more weakly

Sequence: AGCTATGACCATGATTACGAATTGCTT [ssDNA 27mer]
- binding result (BCDX2 complex (human) [1]; weaker than flap, label: 5' FITC, single-stranded DNA): binds more weakly

Sequence: CTAAGTTCGTCAGGATTCCAGCATTCTAACAGTCATAGCG [ssDNA 40mer]
- binding result (miniBRCA2-DSS1 (human)): binds more weakly

Sequence: GAATGTGTGTCTCAATC [ssDNA 20mer]
- binding result (miniBRCA2-DSS1 (human)): binds more weakly

Sequence: GACGCTGCCGAATTCTACCAGTGCCTTGCTA / ATCTGTTGTAATCGTCAAGCTTTATGCCGTT / GAACGGCATAAAGCTTGACGATTACAACAGATCATGGAGCTGTCTAGAGGATCCGACTATCGA / ATCGATAGTCGGATCCTCTAGACAGCTCCATGTAGCAAGGCACTGGTAGAATTCGGCAGCGT [0ntRVF (fork)]
- binding result (BCDX2 complex (human) [1]; fork with no protruding ssDNA, label: Cy3 on strand 1): binds more weakly

Sequence: GACGCTGCCGAATTCTACCAGTGCCTTGCTATTTTTTTTTTTTTTTTTTTTTTTTT / ATCTGTTGTAATCGTCAAGCTTTATGCCGTT / GAACGGCATAAAGCTTGACGATTACAACAGATCATGGAGCTGTCTAGAGGATCCGACTATCGA / ATCGATAGTCGGATCCTCTAGACAGCTCCATGTAGCAAGGCACTGGTAGAATTCGGCAGCGT [20ntRVF]
- binding result (BCDX2 complex (human) [1]): binds

Sequence: GTACAAAGCTCTGGCATGATACTATGCGGC [ssDNA 30mer]
- binding result (miniBRCA2-DSS1 (human)): binds more weakly

Sequence: TGCCGAATTCTACCAGTGCCAGTGATGGACATCTTTGCCCACGTTGACCC / TGGGTCAACGTGGGCAAAGATGTCCTAGCAATGTAATCGTCTATGACGTT / TCGGATCCTCTAGACAGCTCCATGATCACTGGCACTGGTAGAATTCGGC / CAACGTCATAGACGATTACATTGCTTCATGGAGCTGTCTAGAGGATCCGA [RVF2]
- binding result (BCDX2 complex (human) [1]; little or no affinity, label: 5' FITC on strand 4): no binding
- binding result (BC complex (human); label: 5' FITC on strand 4): no binding
- binding result (DX2 complex (human); label: 5' FITC on strand 4): no binding

Sequence: TTTTTTTTTTTTTTTTTTTT [biotin-dT20]
- binding result (RAD51 + BCDX2 complex; [3]): binds

Sequence: TTTTTTTTTTTTTTTTTTTTTTTTT [biotin-dT25]
- binding result (RAD51 + BCDX2 complex; [3]): binds

Sequence: TTTTTTTTTTTTTTTTTTTTTTTTTTTTTTTTTTTTTTTTTTT [Cy3-dT43]
- binding result (RAD51 K133A): binds
- binding result (RAD51 K133R): binds

Sequence: TTTTTTTTTTTTTTTTTTTTTTTTTTTTTTTTTTTTTTTTTTT [biotin-dT43]
- binding result (BCDX2 complex (human) [2]): binds
- binding result (RAD51 + BCDX2 complex; BCDX2 preincubated with vanadate): binds more weakly
